Source: the supplement of paper PMC4604168 (melanoma cell lines)
The other results are listed elsewhere or left out. Many values rest on one well or one pass, so single values are uncertain.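 The apoptosis fraction was the count of cleaved-PARP antibody-stained nuclei relative to all DNA-stained nuclei, imaged in 1,536-well plates. Screening doses were set so most cells survived, and baseline and induced cleaved-PARP levels vary greatly across cell lines.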

Key:
Test in all cases: cleaved PARP positive nuclei fraction relative to DMSO control; melanoma cells; higher = more apoptosis
Settings in all cases: library dose: low library concentration; 72 h
MZ2-MEL = test system: MZ2-MEL
MeWo = test system: MeWo
RPMI7951 = test system: RPMI7951
RVH-421 = test system: RVH-421
SkMel28 = test system: SkMel28
SkMel2 = test system: SkMel2
SkMel30 = test system: SkMel30
UACC62 = test system: UACC62
WM115 = test system: WM115
WM1716 = test system: WM1716
WM1745 = test system: WM1745
WM3526 = test system: WM3526
WM3619 = test system: WM3619
WM451Lu = test system: WM451Lu

Row | Structure (SMILES) | cleaved PARP positive nuclei fraction (MZ2-MEL) | cleaved PARP positive nuclei fraction (MeWo) | cleaved PARP positive nuclei fraction (RPMI7951) | cleaved PARP positive nuclei fraction (RVH-421) | cleaved PARP positive nuclei fraction (SkMel28) | cleaved PARP positive nuclei fraction (SkMel2) | cleaved PARP positive nuclei fraction (SkMel30) | cleaved PARP positive nuclei fraction (UACC62) | cleaved PARP positive nuclei fraction (WM115) | cleaved PARP positive nuclei fraction (WM1716) | cleaved PARP positive nuclei fraction (WM1745) | cleaved PARP positive nuclei fraction (WM3526) | cleaved PARP positive nuclei fraction (WM3619) | cleaved PARP positive nuclei fraction (WM451Lu)
1 | CC(=O)O[C@@]12CO[C@@H]1C[C@H](O)[C@@]1(C)C(=O)[C@H](O)C3=C(C)[C@@H](OC(=O)[C@H](O)[C@@H](NC(=O)OC(C)(C)C)c4ccccc4)C[C@@](O)([C@@H](OC(=O)c4ccccc4)[C@H]21)C3(C)C [Docetaxel] + CNC(=O)c1cc(Oc2ccc(NC(=O)Nc3ccc(Cl)c(C(F)(F)F)c3)cc2)ccn1 [sorafenib] (first compound 0.0001 µM, partner dose 0.4 µM) | 1340% | 289% | 163% | 60% | 337% | 1310% | 500% | 792% | 460% | 631% | 178% | 211% | 182% | 69.4%
2 | CC1(C)CCC(c2ccc(Cl)cc2)=C(CN2CCN(c3ccc(C(=O)NS(=O)(=O)c4ccc(N[C@H](CCN5CCOCC5)CSc5ccccc5)c(S(=O)(=O)C(F)(F)F)c4)cc3)CC2)C1 + Cc1cn(-c2cc(NC(=O)c3ccc(C)c(Nc4nccc(-c5cccnc5)n4)c3)cc(C(F)(F)F)c2)cn1 [nilotinib] (first compound 0.4 µM, partner dose 0.2 µM) | 402% | 410% | 206% | 151% | 38.8% | 150% | 108% | 85.9% | 274% | 42% | 681% | 91.5% | 111% | 69.7%
3 | CC1(C)CCC(c2ccc(Cl)cc2)=C(CN2CCN(c3ccc(C(=O)NS(=O)(=O)c4ccc(N[C@H](CCN5CCOCC5)CSc5ccccc5)c(S(=O)(=O)C(F)(F)F)c4)cc3)CC2)C1 + CC(=O)O[C@@]12CO[C@@H]1C[C@H](O)[C@@]1(C)C(=O)[C@H](O)C3=C(C)[C@@H](OC(=O)[C@H](O)[C@@H](NC(=O)OC(C)(C)C)c4ccccc4)C[C@@](O)([C@@H](OC(=O)c4ccccc4)[C@H]21)C3(C)C [Docetaxel] (first compound 0.4 µM, partner dose 0.0001 µM) | 1330% | 2670% | 295% | 722% | 571% | 640% | 2210% | 433% | 1270% | 395% | 1120% | 1210% | 263% | 453%
4 | CS(=O)(=O)c1ccc(C(=O)Nc2ccc(Cl)c(-c3ccccn3)c2)c(Cl)c1 [vismodegib] + NC1(c2ccc(-c3nc4ccn5c(=O)[nH]nc5c4cc3-c3ccccc3)cc2)CCC1 [MK2206] (first compound 1 µM, partner dose 0.4 µM) | 62.5% | 143% | 95.6% | 146% | 95.8% | 88.3% | 260% | 209% | 133% | 151% | 84.5% | 233% | 109% | 109%
5 | NC1(c2ccc(-c3nc4ccn5c(=O)[nH]nc5c4cc3-c3ccccc3)cc2)CCC1 + C#Cc1cccc(Nc2ncnc3cc(OCCOC)c(OCCOC)cc23)c1 [erlotinib] (first compound 0.4 µM, partner dose 0.8 µM) | 65.3% | 45.8% | 79.6% | 170% | 192% | 153% | 27.7% | 156% | 227% | 52.1% | 115% | 58.9% | 87.1% | 32.1%
6 | C[C@@H](N)c1ccc(C(=O)Nc2ccnc3[nH]ccc23)cc1 + NC1(c2ccc(-c3nc4ccn5c(=O)[nH]nc5c4cc3-c3ccccc3)cc2)CCC1 [MK2206] (first compound 0.4 µM, partner dose 0.4 µM) | 503% | 215% | 104% | 172% | 174% | 130% | 64.2% | 359% | 309% | 542% | 128% | 205% | 104% | 507%
7 | CC1(C)CCC(c2ccc(Cl)cc2)=C(CN2CCN(c3ccc(C(=O)NS(=O)(=O)c4ccc(N[C@H](CCN5CCOCC5)CSc5ccccc5)c(S(=O)(=O)C(F)(F)F)c4)cc3)CC2)C1 + Nc1ncn([C@H]2C[C@H](O)[C@@H](CO)O2)c(=O)n1 [decitabine] (first compound 0.4 µM, partner dose 0.1 µM) | 158% | 446% | 65.8% | 105% | 42.9% | 180% | 98.7% | 69.2% | 315% | 106% | 181% | 48.8% | 122% | 48.2%
8 | NC(=O)c1ccc(N(C(N)=O)c2c(F)cccc2F)nc1-c1ccc(F)cc1F + CN1CCN(c2ccc3nc(-c4c(N)c5c(F)cccc5[nH]c4=O)[nH]c3c2)CC1 [Dovitinib] (first compound 0.4 µM, partner dose 0.1 µM) | 107% | 1230% | 177% | 95.5% | 46.8% | 106% | 191% | 166% | 125% | 554% | 206% | 54.9% | 81.7% | 82.9%
9 | NC1(c2ccc(-c3nc4ccn5c(=O)[nH]nc5c4cc3-c3ccccc3)cc2)CCC1 + Nc1ncn([C@H]2C[C@H](O)[C@@H](CO)O2)c(=O)n1 [decitabine] (first compound 0.4 µM, partner dose 0.1 µM) | 160% | 142% | 112% | 306% | 108% | 171% | 68.7% | 259% | 231% | 524% | 104% | 112% | 89.1% | 115%
10 | CCN(CC)CCNC(=O)c1c(C)[nH]c(/C=C2\C(=O)Nc3ccc(F)cc32)c1C [sunitinib] + C#Cc1cccc(Nc2ncnc3cc(OCCOC)c(OCCOC)cc23)c1 [erlotinib] (first compound 0.4 µM, partner dose 0.8 µM) | 91.8% | 61% | 121% | 104% | 85.7% | 52.6% | 92.3% | 136% | 113% | 56.3% | 146% | 60.1% | 102% | 102%
11 | CS(=O)(=O)c1ccc(C(=O)Nc2ccc(Cl)c(-c3ccccn3)c2)c(Cl)c1 [vismodegib] + CCN(CC)CCNC(=O)c1c(C)[nH]c(/C=C2\C(=O)Nc3ccc(F)cc32)c1C [sunitinib] (first compound 1 µM, partner dose 0.4 µM) | 121% | 74.4% | 328% | 136% | 74.9% | 94% | 53.8% | 78% | 108% | 54.1% | 89.2% | 89.5% | 65.4% | 93.4%
12 | C[C@]1(O)C[C@@H](c2nc(-c3ccc4ccc(-c5ccccc5)nc4c3)c3c(N)nccn32)C1 + C=C(c1ccc(C(=O)O)cc1)c1cc2c(cc1C)C(C)(C)CCC2(C)C [Bexarotene] (first compound 0.4 µM, partner dose 2 µM) | 68.4% | 100% | 136% | 207% | 113% | 112% | 79.6% | 109% | 39.1% | 40.1% | 149% | 212% | 105% | 86.8%
13 | NC1(c2ccc(-c3nc4ccn5c(=O)[nH]nc5c4cc3-c3ccccc3)cc2)CCC1 + O=C(O)c1ccc2c(c1)nc(Nc1cccc(Cl)c1)c1ccncc12 [CX4945] (first compound 0.4 µM, partner dose 0.4 µM) | 25.4% | 115% | 36.1% | 149% | 83.1% | 92.4% | 29.7% | 142% | 124% | 141% | 101% | 70.3% | 112% | 42.7%
14 | COc1ccc(C2=N[C@@H](c3ccc(Cl)cc3)[C@@H](c3ccc(Cl)cc3)N2C(=O)N2CCNC(=O)C2)c(OC(C)C)c1 [Nutlin-3] + CCCCCCCCc1ccc(CCC(N)(CO)CO)cc1 [fingolimod] (first compound 0.1 µM, partner dose 2 µM) | 220% | 96.3% | 101% | 54.4% | 93.8% | 123% | 124% | 135% | 135% | 91.9% | 117% | 48.3% | 107% | 169%
15 | NC(=O)c1ccc(N(C(N)=O)c2c(F)cccc2F)nc1-c1ccc(F)cc1F + C[C@]1(O)C[C@@H](c2nc(-c3ccc4ccc(-c5ccccc5)nc4c3)c3c(N)nccn32)C1 [OSI906] (first compound 0.4 µM, partner dose 0.4 µM) | 274% | 86.3% | 80.3% | 129% | 103% | 118% | 33.4% | 111% | 140% | 24.8% | 145% | 136% | 455% | 43.2%

A different layout for some results above:

| Row | Structure (SMILES) | cleaved PARP positive nuclei fraction (MZ2-MEL) | cleaved PARP positive nuclei fraction (MeWo) | cleaved PARP positive nuclei fraction (RPMI7951) | cleaved PARP positive nuclei fraction (RVH-421) | cleaved PARP positive nuclei fraction (SkMel28) | cleaved PARP positive nuclei fraction (SkMel2) | cleaved PARP positive nuclei fraction (SkMel30) | cleaved PARP positive nuclei fraction (UACC62) | cleaved PARP positive nuclei fraction (WM115) | cleaved PARP positive nuclei fraction (WM1716) | cleaved PARP positive nuclei fraction (WM1745) | cleaved PARP positive nuclei fraction (WM3526) | cleaved PARP positive nuclei fraction (WM3619) | cleaved PARP positive nuclei fraction (WM451Lu) |
| --- | --- | --- | --- | --- | --- | --- | --- | --- | --- | --- | --- | --- | --- | --- | --- |
| 8 | NC(=O)c1ccc(N(C(N)=O)c2c(F)cccc2F)nc1-c1ccc(F)cc1F + CN1CCN(c2ccc3nc(-c4c(N)c5c(F)cccc5[nH]c4=O)[nH]c3c2)CC1 [Dovitinib] (first compound 0.4 µM, partner dose 0.1 µM) | 107% | 1230% | 177% | 95.5% | 46.8% | 106% | 191% | 166% | 125% | 554% | 206% | 54.9% | 81.7% | 82.9% |
| 9 | NC1(c2ccc(-c3nc4ccn5c(=O)[nH]nc5c4cc3-c3ccccc3)cc2)CCC1 + Nc1ncn([C@H]2C[C@H](O)[C@@H](CO)O2)c(=O)n1 [decitabine] (first compound 0.4 µM, partner dose 0.1 µM) | 160% | 142% | 112% | 306% | 108% | 171% | 68.7% | 259% | 231% | 524% | 104% | 112% | 89.1% | 115% |
